Data source: PubChem BioAssay AID1259425 (University of Nebraska Medical Center, 2018)
Assay: 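Find knockdowns that reproduce the gene expression pattern seen when KSR1 is lost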 (primary screen). Cells: HCT116 human colon cancer cells. Knock-down reagent: siRNA pool against human genes, 50 nM siRNA. Measurement: 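mRNA of six signature genes measured together by branched-DNA assay after 50 nM siRNA pool, blank removed, divided by geometric mean of two housekeeping genes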. Reading the numbers: BNIP3L mRNA: higher = more BNIP3L transcript after knockdown.
Shown is an unselected part of about 14,000 reagents tested. Not all columns of the deposit are shown. Not given: the time to read-out.

| gene symbol | BNIP3L mRNA, set 1 |
| --- | --- |
| AP2A2 | 0.121 |
| MOSPD3 | 0.0595 |
| GLP1R | 0.136 |
| PDE4C | 0.0798 |
| ZNF75D | 0.128 |
| DRD2 | 0.176 |
| EIF3L | 0.216 |
| MAML2 | 0.118 |
| KRT1 | 0.113 |
| MUC2 | 0.235 |
| OR2L13 | 0.167 |
| FGFR4 | 0.127 |
| JPT2 | 0.129 |
| TASP1 | 0.147 |
| UBFD1 | 0.0827 |
| MAP3K20 | 0.0875 |

In a second layout: 5 of the entries above
MAML2 — BNIP3L mRNA, set 1: 0.118
KRT1 — BNIP3L mRNA, set 1: 0.113
MUC2 — BNIP3L mRNA, set 1: 0.235
OR2L13 — BNIP3L mRNA, set 1: 0.167
FGFR4 — BNIP3L mRNA, set 1: 0.127

The results go on.
| gene symbol | BNIP3L mRNA, set 1 |
| --- | --- |
| NECTIN2 | 0.0537 |
| NINJ1 | 0.155 |
| ACSL1 | 0.0654 |
| CCR6 | 0.17 |
| ATCAY | 0.12 |
| FSTL3 | 0.222 |
| RASD1 | 0.0884 |
| AKAP14 | 0.194 |
| SCARF1 | 0.113 |
| C11orf58 | 0.224 |
| CASP5 | 0.0894 |
| OXER1 | 0.223 |
| CLIP4 | 0.123 |
| GSDMD | 0.112 |
| TTR | 0.106 |
| KCNV1 | 0.154 |
| ING1 | 0.206 |
| IL31RA | 0.111 |
